Reference: PubChem BioAssay AID504784 (Drosophila RNAi Screening Center, 2011)
Assay: 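Fly genes whose silencing alters how much lipid cells keep in droplets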 (primary screen). Cell system: Drosophila Kc167 embryonic cells. Reagents: long dsRNA against Drosophila genes, about 250 ng dsRNA per well. Duration: 4 days. Treatment: cells fed 400 µM oleic acid bound to BSA. Measurement: 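Microscope images give a droplet-to-nucleus area ratio, taken as log and converted to a screen-wide B-score; higher values mean greater lipid storage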. Scale: droplet/nuclear area B-score: higher = more stored lipid (overstorage).
In all, the deposit lists about 17,000 reagents; this is an unselected part of those with a known target gene and a result. 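Each column is one replicate's B-score; the combined score over replicates was not deposited, so single values may mislead.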 A plus sign joins genes that one reagent is predicted to hit.

target,dsRNA,"droplet/nuclear area B-score, replicate 1","droplet/nuclear area B-score, replicate 2","droplet/nuclear area B-score, replicate 3"
Letm1,DRSC04476,5.78,9.48,
CG5493 + CG5327,DRSC06938,0.334,-0.38,
CG5435,DRSC02860,-0.526,-1.68,
CG14424,DRSC18472,0.043,-0.739,
CG12016 + Dpm2,DRSC08224,-2.74,-0.13,
CG17048,DRSC06649,-1.2,-0.654,
Fit1 (Fermitin 1),DRSC08450,-0.192,2.04,
CG10953,DRSC06021,-0.805,-0.241,
Dsp1 (Dorsal switch protein 1),DRSC20315,-1.92,-0.186,
Dsp1 (Dorsal switch protein 1),DRSC23078,-0.427,-3.89,
cv-c (crossveinless c),DRSC14969,-0.366,-0.265,
cv-c (crossveinless c),DRSC14970,0.262,-0.194,
cv-c (crossveinless c),DRSC14971,1.96,1.84,
cv-c (crossveinless c),DRSC14972,-1.11,0.268,
cv-c (crossveinless c),DRSC14973,0.964,1.75,
cv-c (crossveinless c),DRSC16428,0.395,0.225,
cv-c (crossveinless c),DRSC23199,0.985,1.64,
CG32772,DRSC18052,0.959,1.17,0.00144
CG32772,DRSC18406,0.533,-1.11,-0.127
CG32772,DRSC22349,-0.502,0.786,
CG16711,DRSC10220,-0.765,0.0143,
tea (telomere ends associated),DRSC06110,2.52,2.31,
tea (telomere ends associated),DRSC06236,2.97,1.92,
CG17764,DRSC18135,-1.26,1.26,
CG17764,DRSC23055,0.422,1.21,
Nemp (Nuclear envelope integral membrane protein),DRSC20206,0.556,1.23,
osy (oskyddad),DRSC14903,0.0565,0.262,
osy (oskyddad),DRSC15979,-1.43,1.26,
osy (oskyddad),DRSC15981,0.342,-0.674,
CG10864,DRSC14273,-0.733,-0.149,
RpL23 (Ribosomal protein L23),DRSC04648,5.58,4.93,
CG8620,DRSC11020,-0.455,-3.74,
CG34433,DRSC15077,-0.88,-0.523,
CG14615,DRSC20627,2.91,0.924,
ZnT35C (Zinc transporter 35C),DRSC01959,-1.04,-0.558,
Mdr65 (Multi drug resistance 65),DRSC11220,0.00422,0.424,0.444
CG10035,DRSC14177,-0.133,-0.226,
grn (grain),DRSC16961,0.501,-0.931,
fln (flightin),DRSC11346,0,-0.234,0.398
how (held out wings),DRSC16966,3.33,3.63,
Ppat-Dpck,DRSC09744,-0.833,-0.861,
CG18542 + CG32939,DRSC15342,-0.0532,10.2,
Lip2 (Lipase 2),DRSC02577,-0.272,1.12,
Lip2 (Lipase 2),DRSC02578,-0.538,-0.676,
CG32214,DRSC09613,-0.157,-1.95,
CG14717,DRSC14940,3.6,-0.789,
nis,DRSC00290,-0.384,-1.34,
CG15011,DRSC08464,0.642,-0.0177,
Tdc1 (Tyrosine decarboxylase 1),DRSC04942,2.2,0.146,
dah (discontinuous actin hexagon),DRSC20320,0.352,-0.0258,0.433
Fa2h (Fatty acid 2-hydroxylase),DRSC06608,1.8,-0.775,
Fa2h (Fatty acid 2-hydroxylase),DRSC06609,-0.821,0.562,
Sbds (SBDS ribosome maturation factor),DRSC10992,0.00326,1.98,
Dpy-30L1 (Dpy-30-like 1),DRSC02959,-1.07,0.65,
CG8197,DRSC07105,-0.151,0.419,
gammaTub23C (gamma-Tubulin at 23C),DRSC00820,-0.628,0.0754,
CG13810,DRSC08344,0.681,0.457,
CG13810,DRSC22838,-0.543,-0.295,
CG14005,DRSC02337,0.155,-1.55,
scpr-B (SCP-containing protein B),DRSC15200,-2.91,6.35,
Hsl (Hormone-sensitive lipase),DRSC06028,-0.648,-0.395,
CG3358,DRSC04992,3.05,1.32,
idc (identity crisis),DRSC15680,-2.52,0.519,
mRpL30 (mitochondrial ribosomal protein L30),DRSC18416,1.93,2.15,
Cdc14 (Cell division cycle 14),DRSC03013,-0.00736,2.2,
CG1889,DRSC18195,0.0363,0.364,0.179
Synj (Synaptojanin),DRSC04526,0.456,0.253,
ple (pale),DRSC11383,-1.72,-2.47,
mRpS18A (mitochondrial ribosomal protein S18A),DRSC14369,4.45,4.89,
CG18343,DRSC06726,-1.49,0.0396,
Brd7-9 (Bromodomain containing 7/9),DRSC03017,2.35,-0.958,
eys (eyes shut),DRSC00402,-1.75,0.824,
eys (eyes shut),DRSC00403,0.705,0.629,
eys (eyes shut),DRSC00695,0.526,-1.62,
Golgin104 (Golgin 104),DRSC10459,-2.9,-1.35,0.0215
Pig1 (Pre-intermoult gene 1),DRSC18698,1.12,0.484,
alka (alkaliphile),DRSC06136,0.759,-2.11,
JMJD7 (Jumonji domain containing 7),DRSC09703,1.64,1.07,
InR (Insulin-like receptor),DRSC16717,0.0875,1.5,
Nf-YC (Nuclear factor Y-box C),DRSC18272,-0.656,-1.23,
Nf-YC (Nuclear factor Y-box C),DRSC23106,-0.831,-0.852,
CG15452,DRSC20523,-0.525,-0.329,
Frmd5 (FERM domain containing),DRSC02802,0.67,0.341,

Only “droplet/nuclear area B-score, replicate 1”, for 7 of the entries above:
Ppat-Dpck [DRSC09744]	-0.833
CG18542 + CG32939 [DRSC15342]	-0.0532
Lip2 (Lipase 2) [DRSC02577]	-0.272
Lip2 (Lipase 2) [DRSC02578]	-0.538
CG32214 [DRSC09613]	-0.157
CG14717 [DRSC14940]	3.6
nis [DRSC00290]	-0.384
